Measurements: paper PMC10779874
No constants are given. Whether binding was seen depends on the method and setting. In cells and extracts the contact can be indirect. A result given as binding can be weak or reduced; the word gives no strength. Each block holds one binder with its values, some of them ahead of it.

Biological target: ATP6V1H, the H subunit of V-type proton ATPase
Assay: co-IP; magnetic beads conjugated with ATP6V1H antibodies (commercial kit, Beaver) incubated with the RIPA lysate supernatant of RAW264.7 cell derivatives (native, empty vector, overexpressing ATP6V1H, mutated ATP6V1H); eluate blotted for integrin subunits

binding: binds
B1: integrin alpha 2b (protein, UniProt Q9QUM0 32-1033)
chain: LNLDSEKFSVYAGPNGSHFGFSVDFHKDKHGSVSIVVGAPRALNASQEETGAVFLCPWKANGGKCNPLLFDLRDETRNLGFQIFQTFKTGQGLGASVVSWNDVIVACAPWQHWNVLEKRDEAEKTPVGGCFLAQLQSGGRAEYSPCRANTMSSVYAESFRGDKRYCEAGFSLAVTQAGELVLGAPGGYFFLGLLARVPIENIISSYRPGTLLWHVSNQRFTYDNSNPVFFDGYRGYSVAVGEFDGDPSTTEYVSGAPTWSWTLGAVEILDSYYQPLHRLHGEQMASYFGHSVAVTDVNGDGRHDLLVGAPLYMESRADRKLAEVGRVYLFLQPKGPQALSTPTLLLTGTQLYGRFGSAIAPLGDLNRDGYNDIAVAAPYGGPSGQGQVLIFLGQSEGLSPRPSQVLDSPFPTGSGFGFSLRGAVDIDDNGYPDLIVGAYGASKVAVYRAQPVVMATVQLMVQDSLNPTLKNCVLDQTKTPVSCFNIQMCVGATGHNIPQKLHLKAELQLDLQKPRQGRRVLLLASQQASLTLSLDLGGRDKPICHTTGAFLRDEADFRDKLSPIVLSLNVSLPPEETGGAPAVVLHGETHVQEQTRIILDCGEDDLCVPQLRLTATAGDSPLLIGADNVLELKIEAANDGEGAYEAELAVHLPPGAHYMRALSNIEGFERLVCTQKKENESRVALCELGNPMKKDTRIGITMLVSVENLEEAGESVSFQLQVRSKNSQNPNSKVVMLPVAIQAEATVELRGNSFPASLVVAAEEGDREQEDLDRWVSRLEHTYELHNIGPGTVNGLRLLIHIPGQSQPSDLLYILDVQPQGGLLCSTQPSPKVDWKLSTPSPSSIRPVHHQRERRQAFLQGPKPGQQDPVLVSCDGSASCTVVECELREMVRGQRAMVTVQVMLGLSSLRQRPQEQFVLQSHAWFNVSSLPYSVPVVSLPSGQARVQTQLLRALEERAIPVWWVLVGVLGGLLLLTLLVLAMWKAGFFKRNRPPLEEDEEEE

binding: binds
B2: integrin beta 5 (protein, UniProt O70309 24-798)
chain: GLNICTSGSATSCEECLLIHPKCAWCSKEYFGNPRSITSRCDLKANLIRNGCEGEIESPASSTHVLRNLPLSSKGSSATGSDVIQMTPQEIAVSLRPGEQTTFQLQVRQVEDYPVDLYYLMDLSLSMKDDLENIRSLGTKLAEEMRKLTSNFRLGFGSFVDKDISPFSYTAPRYQTNPCIGYKLFPNCVPSFGFRHLLPLTDRVDSFNEEVRKQRVSRNRDAPEGGFDAVLQAAVCKEKIGWRKDALHLLVFTTDDVPHIALDGKLGGLVQPHDGQCHLNEANEYTASNQMDYPSLALLGEKLAENNINLIFAVTKNHYMLYKNFTALIPGTTVEILHGDSKNIIQLIINAYSSIRAKVELSVWDQPEDLNLFFTATCQDGISYPGQRKCEGLKIGDTASFEVSVEARSCPGRQAAQSFTLRPVGFRDSLQVEVAYNCTCGCSTGLEPNSARCSGNGTYTCGLCECDPGYLGTRCECQEGENQSGYQNLCREAEGKPLCSGRGECSCNQCSCFESEFGRIYGPFCECDSFSCARNKGVLCSGHGECHCGECKCHAGYIGDNCNCSTDVSTCKAKDGQICSDRGRCVCGQCQCTEPGAFGETCEKCPTCPDACSSKRDCVECLLLHQGKPDNQTCHHQCKDEVITWVDTIVKDDQEAVLCFYKTAKDCVMMFSYTELPNGRSNLTVLREPECGSAPNAMTILLAVVGSILLIGMALLAIWKLLVTIHDRREFAKFQSERSRARYEMASNPLYRKPISTHTVDFAFNKFNKSYNGSV

binding: binds
B3: integrin beta 3 (protein, UniProt O54890 26-787)
chain: ESNICTTRGVNSCQQCLAVSPVCAWCSDETLSQGSPRCNLKENLLKDNCAPESIEFPVSEAQILEARPLSSKGSGSSAQITQVSPQRIALRLRPDDSKIFSLQVRQVEDYPVDIYYLMDLSFSMKDDLSSIQTLGTKLASQMRKLTSNLRIGFGAFVDKPVSPYMYISPPQAIKNPCYNMKNACLPMFGYKHVLTLTDQVSRFNEEVKKQSVSRNRDAPEGGFDAIMQATVCDEKIGWRNDASHLLVFTTDAKTHIALDGRLAGIVLPNDGHCHIGTDNHYSASTTMDYPSLGLMTEKLSQKNINLIFAVTENVVSLYQNYSELIPGTTVGVLSDDSSNVLQLIVDAYGKIRSKVELEVRDLPEELSLSFNATCLNNEVIPGLKSCVGLKIGDTVSFSIEAKVRGCPQEKEQSFTIKPVGFKDSLTVQVTFDCDCACQAFAQPSSPRCNNGNGTFECGVCRCDQGWLGSMCECSEEDYRPSQQEECSPKEGQPICSQRGECLCGQCVCHSSDFGKITGKYCECDDFSCVRYKGEMCSGHGQCNCGDCVCDSDWTGYYCNCTTRTDTCMSTNGLLCSGRGNCECGSCVCVQPGSYGDTCEKCPTCPDACSFKKECVECKKFNRGTLHEENTCSRYCRDDIEQVKELTDTGKNAVNCTYKNEDDCVVRFQYYEDTSGRAVLYVVEEPECPKGPDILVVLLSVMGAILLIGLATLLIWKLLITIHDRKEFAKFEEERARAKWDTANNPLYKEATSTFTNITYRGT
